The values are deposited in ChEMBL (CHEMBL3988442, “University of Dundee, Small-Polar-MMV Screening Library” (2021)).

Protein sequences, listed by entry. Tags and fused reporters are not part of them. Residues count along the entry.
UniProt Q4DA54, 1-478: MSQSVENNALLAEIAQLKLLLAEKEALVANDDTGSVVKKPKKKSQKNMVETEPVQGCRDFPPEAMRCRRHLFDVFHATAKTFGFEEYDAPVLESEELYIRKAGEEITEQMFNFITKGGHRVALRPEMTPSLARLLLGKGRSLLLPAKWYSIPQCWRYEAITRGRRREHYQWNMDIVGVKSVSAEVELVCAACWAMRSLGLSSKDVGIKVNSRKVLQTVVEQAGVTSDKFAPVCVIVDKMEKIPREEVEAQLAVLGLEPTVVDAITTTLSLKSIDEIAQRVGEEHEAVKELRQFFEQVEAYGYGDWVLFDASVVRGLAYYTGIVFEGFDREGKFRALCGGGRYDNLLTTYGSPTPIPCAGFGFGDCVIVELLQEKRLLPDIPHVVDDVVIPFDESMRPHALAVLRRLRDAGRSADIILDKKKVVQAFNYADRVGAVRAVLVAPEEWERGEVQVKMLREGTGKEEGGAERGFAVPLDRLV
UniProt I6X8D2, whole entry: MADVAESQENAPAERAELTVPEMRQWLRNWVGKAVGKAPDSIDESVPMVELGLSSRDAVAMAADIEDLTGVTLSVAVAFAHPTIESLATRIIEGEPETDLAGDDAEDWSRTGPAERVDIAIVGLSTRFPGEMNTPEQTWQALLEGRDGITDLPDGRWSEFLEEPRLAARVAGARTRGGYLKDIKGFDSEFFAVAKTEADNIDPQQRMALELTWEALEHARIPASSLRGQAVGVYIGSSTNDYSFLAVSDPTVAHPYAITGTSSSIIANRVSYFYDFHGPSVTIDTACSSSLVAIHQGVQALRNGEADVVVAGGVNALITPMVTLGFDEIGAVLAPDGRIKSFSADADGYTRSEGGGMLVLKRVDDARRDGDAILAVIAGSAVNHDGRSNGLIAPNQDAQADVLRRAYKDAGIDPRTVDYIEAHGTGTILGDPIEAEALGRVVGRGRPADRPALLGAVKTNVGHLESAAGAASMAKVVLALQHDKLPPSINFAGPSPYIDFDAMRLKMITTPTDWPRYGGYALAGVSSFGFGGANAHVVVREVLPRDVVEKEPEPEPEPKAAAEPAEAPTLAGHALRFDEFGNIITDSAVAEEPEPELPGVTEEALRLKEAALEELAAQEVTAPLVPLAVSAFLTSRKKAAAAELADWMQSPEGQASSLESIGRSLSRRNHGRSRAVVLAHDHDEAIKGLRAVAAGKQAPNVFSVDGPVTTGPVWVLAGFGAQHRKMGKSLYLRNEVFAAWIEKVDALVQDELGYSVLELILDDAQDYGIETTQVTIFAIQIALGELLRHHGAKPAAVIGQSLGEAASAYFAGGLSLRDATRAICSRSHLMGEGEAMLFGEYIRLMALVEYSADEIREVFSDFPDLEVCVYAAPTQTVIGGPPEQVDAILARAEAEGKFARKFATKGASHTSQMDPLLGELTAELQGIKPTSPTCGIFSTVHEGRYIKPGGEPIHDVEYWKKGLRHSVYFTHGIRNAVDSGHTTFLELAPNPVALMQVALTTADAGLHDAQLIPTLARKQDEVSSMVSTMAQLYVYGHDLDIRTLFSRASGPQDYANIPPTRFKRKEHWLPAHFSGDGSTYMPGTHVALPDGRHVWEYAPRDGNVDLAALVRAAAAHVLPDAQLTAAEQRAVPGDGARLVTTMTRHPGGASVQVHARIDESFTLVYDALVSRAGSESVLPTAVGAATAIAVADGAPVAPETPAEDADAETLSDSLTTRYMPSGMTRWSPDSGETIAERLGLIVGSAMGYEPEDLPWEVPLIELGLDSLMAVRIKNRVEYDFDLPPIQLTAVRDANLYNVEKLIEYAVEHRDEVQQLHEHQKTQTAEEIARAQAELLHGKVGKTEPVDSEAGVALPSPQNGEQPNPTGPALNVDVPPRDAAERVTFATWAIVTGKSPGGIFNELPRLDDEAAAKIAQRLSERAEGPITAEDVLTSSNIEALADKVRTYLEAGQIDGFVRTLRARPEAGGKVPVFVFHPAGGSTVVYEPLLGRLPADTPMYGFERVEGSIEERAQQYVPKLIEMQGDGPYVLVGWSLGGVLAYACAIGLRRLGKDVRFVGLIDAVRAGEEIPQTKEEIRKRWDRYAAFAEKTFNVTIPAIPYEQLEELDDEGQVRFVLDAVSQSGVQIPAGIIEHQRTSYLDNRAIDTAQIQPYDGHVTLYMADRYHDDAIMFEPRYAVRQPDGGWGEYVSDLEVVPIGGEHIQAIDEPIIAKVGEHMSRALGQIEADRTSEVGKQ
UniProt P9WNZ1, whole entry: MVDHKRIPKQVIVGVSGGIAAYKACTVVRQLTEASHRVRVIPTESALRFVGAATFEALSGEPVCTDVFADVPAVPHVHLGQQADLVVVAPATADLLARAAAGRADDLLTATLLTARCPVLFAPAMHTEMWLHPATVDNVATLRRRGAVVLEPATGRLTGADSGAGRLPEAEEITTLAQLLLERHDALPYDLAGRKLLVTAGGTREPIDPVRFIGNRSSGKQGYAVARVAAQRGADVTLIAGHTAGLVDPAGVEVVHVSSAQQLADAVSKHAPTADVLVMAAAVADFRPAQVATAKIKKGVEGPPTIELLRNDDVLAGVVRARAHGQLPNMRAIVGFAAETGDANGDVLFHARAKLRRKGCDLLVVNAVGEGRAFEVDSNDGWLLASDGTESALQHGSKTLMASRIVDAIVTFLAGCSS
UniProt Q8IDJ8, 1-583: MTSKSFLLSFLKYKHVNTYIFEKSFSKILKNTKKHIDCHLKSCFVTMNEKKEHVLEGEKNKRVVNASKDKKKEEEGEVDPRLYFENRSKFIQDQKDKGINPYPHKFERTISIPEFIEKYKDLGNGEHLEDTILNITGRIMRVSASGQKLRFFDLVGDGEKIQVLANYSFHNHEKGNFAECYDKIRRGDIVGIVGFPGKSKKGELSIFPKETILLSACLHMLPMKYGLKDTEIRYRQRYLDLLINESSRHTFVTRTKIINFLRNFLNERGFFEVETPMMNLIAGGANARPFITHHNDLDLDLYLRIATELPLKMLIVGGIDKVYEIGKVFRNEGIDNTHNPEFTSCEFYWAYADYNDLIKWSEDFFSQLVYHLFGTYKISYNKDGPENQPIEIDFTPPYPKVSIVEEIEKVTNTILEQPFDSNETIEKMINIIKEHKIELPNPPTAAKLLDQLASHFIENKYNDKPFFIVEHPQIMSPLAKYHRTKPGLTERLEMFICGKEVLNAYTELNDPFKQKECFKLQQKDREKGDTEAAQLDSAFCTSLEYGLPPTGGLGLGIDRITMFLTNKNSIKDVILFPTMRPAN
UniProt P9WFT3, whole entry: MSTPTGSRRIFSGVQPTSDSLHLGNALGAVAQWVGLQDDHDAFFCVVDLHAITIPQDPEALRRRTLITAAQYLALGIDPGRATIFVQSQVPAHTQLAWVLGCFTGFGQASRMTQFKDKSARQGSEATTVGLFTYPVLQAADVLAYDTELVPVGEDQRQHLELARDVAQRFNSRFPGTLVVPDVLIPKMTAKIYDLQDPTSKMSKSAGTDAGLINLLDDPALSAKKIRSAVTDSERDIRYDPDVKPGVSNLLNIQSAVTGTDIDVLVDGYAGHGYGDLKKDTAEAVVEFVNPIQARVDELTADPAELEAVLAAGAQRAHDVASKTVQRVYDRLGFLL

Results are given as percent effect.
The record does not define 0% and 100%; most values in the screen are far below 50% and negative numbers occur (in some assays of this library far below -100).
Compounds were drawn at random from those tested, without regard to their results.
Two or more numbers in one place are separate tests of the same structure; such repeats can differ widely.
A dash means the value is not listed here; it may have been measured.

A: 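Enzyme assay of histidyl-tRNA synthetase; the read-out is not stated. Target: Histidine-tRNA ligase, Trypanosoma cruzi CL Brener (UniProt Q4DA54). Tested at 30 µM. Direction is inferred from retests: higher values go with stronger inhibition. Size under these conditions: about 69,000 compounds, about 31 of them at 50% or above in at least one test.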
B: 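Enzyme assay of the thioesterase domain of polyketide synthase 13; the read-out is not stated. Target: Polyketide synthase Pks13, Mycobacterium tuberculosis (UniProt I6X8D2). Concentration: 30 µM. The record gives no direction; the compounds picked for IC50 retests had high values, so higher reads as stronger inhibition. Of about 67,000 compounds tested this way, about 300 (0.46%) reached 50% or more in at least one test.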
C: 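Enzyme assay of CoaBC with a phosphate dye (Biomol Green) read at 650 nm. Target: Coenzyme A biosynthesis protein CoaBC, Mycobacterium tuberculosis (UniProt P9WNZ1). Compounds at 30 µM. Higher reads as stronger inhibition, judged from the few compounds that gave an IC50. Most strong results did not repeat in a second test. Size under these conditions: about 67,000 compounds, about 40 of them at 50% or above in at least one test.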
D: 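Cell assay of Leishmania donovani living inside macrophages; the read-out is not stated. Concentration: 30 µM. The record gives no direction; compounds that gave an IC50 in retests scored well above the rest, so higher reads as stronger inhibition. Of about 69,000 compounds tested this way, about 1,000 (1.5%) reached 50% or more in at least one test.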
E: 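Enzyme assay of the cytosolic lysyl-tRNA synthetase in 384-well plates, read by luminescence. Target: Lysine-tRNA ligase, Plasmodium falciparum 3D7 (UniProt Q8IDJ8). Compounds at 30 µM. Direction is inferred from only a few compounds that gave an IC50; most scored high, so higher reads as stronger inhibition. Of about 69,000 compounds tested this way, about 49 (0.071%) reached 50% or more in at least one test.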
F: 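Enzyme assay of tryptophanyl-tRNA synthetase; the read-out is not stated. Target: Tryptophan-tRNA ligase, Mycobacterium tuberculosis (UniProt P9WFT3). Compounds at 10 µM. Direction is not recorded; retested compounds ran higher, which suggests that high means inhibition. Size under these conditions: about 65,000 compounds, about 64 of them at 50% or above in at least one test.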

Compound,A,B,C,D,E,F
CC(C)N(C)Cc1cn2c(n1)CN(Cc1ccsc1)CC2,6.612,-8.609,-11.4,-,-1.452,-0.08224
Cc1nc2oc(C(=O)N3CCOCC3)c(N)c2c2c1CCCC2,6,-5.347,0,16.73,3.095,2.72
COc1ccc(CN2CCC3(CC2)CCN(CCN(C)C)C3=O)cc1,5.825,-21.33,7.851,-,4.921,-2.035
CCCn1cc(CN2CCC(c3[nH]ncc3S(C)(=O)=O)C2)cn1 (centres undefined),6.593,2.289,2.427,22.37 and 13.7,3.173,-
Cc1ccc(N2CCCC3(CCCC(=O)N3)C2)nn1 (centres undefined),6.329,-13.45,-,-,4.808,-3.128
CNc1ncc(C(=O)N2CCOC(C(=O)N3CCCCCC3)C2)cn1 (centres undefined),6.202,0.2103,-13.37,5.112,1.087,-5.21
Cc1ccccc1C(O)CNC(=O)Cc1ccc(F)cc1 (centres undefined),1.02,-16.62,1.944,1.173,2.228,-2.183
[H][C@@]12CCN(CC3CCOCC3)[C@@]1([H])CCN2C(=O)c1ccc(C)nc1,-,-,-,-15.2,-,-
CC1CN(C(=O)c2cc[nH]c(=O)c2)c2ccccc21 (centres undefined),5.882,-20.11,5.104,18.24,0.9478,1.262
Cn1cnc(S(=O)(=O)N2CCN(CC3CC3)c3ncccc3C2)c1,3.681,-28.91,-,-,-0.5259,1.066
CC1CN(Cc2ccccc2)CCCN1CCNS(C)(=O)=O (centres undefined),1.587,-13.97,-17.56,-11.48,3.773,1.3
CCc1ocnc1C(=O)N1CCCC1c1noc(C(C)C)n1 (centres undefined),5.294,-12.54,1.535,14.26,0.2668,0.624
O=C(Cn1cc(C(=O)O)ccc1=O)NCc1ccc(F)c(Cl)c1,-2.732,-43.16,9.556,13.24,5.469,-1.206
COc1cccc(Cn2ncnc2CNC(C)=O)c1,3.004,5.629,-6.34,29.43,1.891,-7.444
O=C(O)C(F)(F)F.c1ccc(CN2CCc3ncnc(-c4ccsc4)c3CC2)nc1,-,-,-,27.51,-,-
CC(C)C(=O)NCc1ccc(N2CCCC2)nc1,8.43,5.968,1.746,30.37,-0.2611,-5.508
CC(OCC1CC1)C(=O)NCCC(=O)Nc1ccccn1 (centres undefined),3.478,-14.82,5.951,18.27,4.461,0.3564
Cn1cc(-c2cc(C(F)(F)F)n(CCCN)n2)cn1,4.624,-22.69,-2.331,10.12,-0.1305,-
CCOCCN1CCC(c2cncc(C)n2)CC1,1.916,-2.551,5.024,34.73,1.367,-0.9115
COCCNC(=O)[C@H]1C[C@@H]2CCN(CCc3ccccc3)C[C@H]2O1,13.27,-28.48,3.832,-,4.508,-4.625
COCCC1(CO)CCCN(C(=O)c2cc(=O)[nH]c(=O)[nH]2)C1 (centres undefined),-0.8772,5.002,0.6165,-3.969,-0.2715,-3.604
O=C(CS(=O)(=O)c1cccc[n+]1[O-])NC1CCCc2ccccc21 (centres undefined),-1.622,-7.873,13.18,12.64,-0.7749,-2.974
CNc1cc2c(nn1)CCN(C(=O)c1ccc(-n3nccc3C)cc1)C2,1.887,-16.69,4.103,-17.25,0.7329,0.2346
Cc1ccc2oc(CN3CCn4nc(CCC(=O)O)cc4C3)c(C)c2c1,-4.523,-4.461,5.187,-31.46,-1.532,5.145
Cc1occc1C(=O)N1CCc2ncnc(C3CCOC3)c2CC1 (centres undefined),6.122,11.99,3.832,25.89,-1.481,-9.629
Cc1cccc(C(=O)N2CCc3c(COCC4CC4)cncc3C2)n1,1.97,-1.605,3.807,6.615,-0.6037,-2.387
Cc1cnc(N2CC3(CCN(S(=O)(=O)C4CC4)C3)C2)nc1,7.216,-3.68,2.956,-,6.818,-8.749
COCCN1CCN(C(C(=O)O)c2ccc(SC)cc2)CC1 (centres undefined),1.754,-16.27,2.836,11.37,0.484,-1.952
CC(CN1CCCC1=O)NC(=O)c1cc(-c2cccc(Cl)c2)no1 (centres undefined),0.9804,-6.555,-0.4878,13.53,6.564,-1.354
CC(=O)NC1CCN(c2cc(C3CCNCC3)nc(C)n2)C1 (centres undefined),2.703,-24.95,-1.709,13.32,7.214,-1.356
CC[C@@]1(O)CCN(Cc2cc(C3CCCCC3)no2)C[C@H]1O,-2.703,-15.25,8.974,-2.495,5.333,-2.926
Cc1nc(C2CCCN(C(=O)c3scnc3C)C2)no1 (centres undefined),0,-11.33,8.861,2.303,4.186,-0.3791
O=C(O)C(F)(F)F.O=C(O)C(F)(F)F.[H][C@@]12COC[C@]1(CN(C)C)CN(Cc1ccc(OC)cc1)C2,-,-,-,-146.3,-,-
[H][C@@]12CCN(CC3CC3)C(=O)[C@@]1([H])CN(c1ncc(C)cn1)C2,-,-,-,18.91,-,-
CNC(=O)Cc1ccc(NC(=O)NC(C)C(C)C)cc1 (centres undefined),1.087,-28.93,10.12,14.96,1.126,-0.3178
COc1ccc2cc(C(=O)NCCc3nc(C)no3)[nH]c2c1,-1.327,-33.36,6.308,30.95,4.433,-1.117
Cc1cnc(CNC(=O)NCCOc2ncccc2Cl)s1,0,-26.52,0.2169,9.083,3.06,3.186
COc1ccc(NC(=O)CCc2c(C)nc3cc(O)nn3c2C)cn1,6.87,30.48,2.892,19.21,8.544,2.158
COc1cccc(-c2cc(NCCO)nc3[nH]ccc23)n1,13.79,7.168,0.615,2.844,5.243,-1.49
[H][C@@]12OCCN(S(=O)(=O)C3CC3)[C@@]1([H])CC[C@H]2OC,-,-,-,-1.378,-,-
COc1c(C)cnc(CSc2nnc(N3CCCC3)s2)c1C,8.333,18.05,-3.719,-1.745,3.179,-3.838

Once more, the final 2:

* [H][C@@]12OCCN(S(=O)(=O)C3CC3)[C@@]1([H])CC[C@H]2OC | D: -1.378%
* COc1c(C)cnc(CSc2nnc(N3CCCC3)s2)c1C | A: 8.333%; B: 18.05%; C: -3.719%; D: -1.745%; E: 3.179%; F: -3.838%